Reference: PubChem BioAssay AID493014 (National Center for Advancing Translational Sciences (NCATS), 2011)
The campaign covered roughly 340,000 compounds. About 170 (0.05%) were called active. The shares of active, inactive and inconclusive entries below differ from those in the screen. Calls follow the shape of the dose curve; as a rule, active = well fitted inhibition curve with a large enough effect in the signal ratio, with a control signal flat (not every such curve was filed as active); inconclusive = small, poorly fitted or top-dose-only effect, or effect the other way, or a change in a side signal; inactive = flat fitted curve, though single readings scatter; the % refers to the signal ratio. A potency beside an inconclusive call is a rough fit, not a confirmed value.

Assay: qHTS Assay to Find Inhibitors of Chronic Active B-Cell Receptor Signaling;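 as to activity change, negative = inhibition: plate controls were basal doxycycline-induced cells for no effect and cells given 10 µM MG132 for full effect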
Settings: ABC-DLBCL IkBa-CBG/CBR reporter, luminescence ratio (green luciferase fused to IkBa over red control in TMD8 lymphoma cells), 4 h; activity change, negative = inhibition: at 46.1 µM (top of the series)
In short: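 Compounds up to 46 uM were incubated four hours with TMD8 cells whose green CBG68 luciferase is fused to IkappaBalpha; red CBR luminescence normalised the signal, and concentration-effect curves were fitted to fusion, red and ratio data.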
Potency is read from the fitted curve at half-maximal effect.

Row | SMILES | Potency | activity change, negative = inhibition
1 | O=C(COC(=O)c1cccc(OC(F)F)c1)NC(=O)NC1CCCCC1 | inconclusive: 29.1 µM [falling, single point] | –
2 | Cc1cccc(N2CCN(CC(=O)NCc3ccccc3)CC2)c1C | – | inconclusive: -21.5%
3 | CC(=O)C1=C(O)C(=O)N(CCC(=O)O)C1c1cccc(F)c1 (stereo not given) | – | inconclusive: 27.1%
4 | COc1ccc(OC)c(C=Nc2ccccc2-c2nc3ccccc3[nH]2)c1 | – | inactive
5 | Cc1nnc(-c2ccc(Oc3ccc(C)c(C)c3)c([N+](=O)[O-])c2)o1 | – | inconclusive: -6.3%
6 | CC(=O)N1c2ccccc2Oc2cc3ccccc3cc21 | – | inconclusive: -1.02%
7 | Cc1cc(C)cc(NC(=O)CSc2nnc(-c3ccccc3Br)o2)c1 | inconclusive: 35.5 µM [falling, partial curve, poor fit] | –
8 | C=CCNC(=S)N/N=C(\C)c1ccc(OC)cc1 | inconclusive: 16.4 µM [falling, partial curve, poor fit] | –
9 | Cc1cc(NC(=O)C(C)SCC(=O)N(C)CC(=O)Nc2ccccc2C(F)(F)F)no1 (stereo not given) | – | inconclusive: -1.45%
10 | S=C(NCCc1ccccn1)Nc1ccc(Cl)cc1Cl | – | inactive
11 | Cc1cccc(-c2noc(CCCC(=O)NCC3CCCO3)n2)c1 (stereo not given) | inconclusive: 0.794 µM [rising, full curve] | –
12 | CCCCc1nc2c(=O)[nH]c3ccccc3c2o1 | – | inconclusive: 4.43%
13 | Cc1cccc(NC(=O)C(=O)NCCCN2CCOCC2)c1 | – | inconclusive: -25%
14 | C/C(CC(=O)Nc1cccc(Cl)c1C)=N\NC(=O)Cc1csc(N)n1 | – | inconclusive: -13.6%
15 | Cc1nc(N)nc(SCc2ccc([N+](=O)[O-])cc2)c1N | – | inconclusive: -1.04%
16 | COC(=O)NCCOC(=O)N(O)c1ccc(Br)cc1 | – | inconclusive: 5.78%
17 | CC(=O)Nc1ccc(NC(=O)CC2SC(=O)N(CC(=O)c3ccccc3)C2=O)cc1 (stereo not given) | – | inconclusive: 18.4%
18 | Nc1nc(NC(=O)c2ccccc2Cl)nn1-c1ccccc1 | – | inconclusive: 282%
19 | CCCCC(=O)N/C(N)=N/c1nc2ccccc2o1 | – | inconclusive: -1.38%
20 | COc1ccc2nc(C)cc(SCC(=O)NNC(=O)COc3ccc(C)cc3)c2c1 | – | inconclusive: 5.35%
21 | CCN(CC)CCCN=Cc1c(O)n(-c2ccccc2C)c(=O)c2ccccc12 | – | inactive
22 | C/C(=N\NC(=O)Cc1ccc(Cl)cc1)c1ccccn1 | – | inconclusive: 4.26%

Row | SMILES | Potency | activity change, negative = inhibition
23 | O=C(Nc1nc2ccccc2n1CCOc1ccccc1)c1ccco1 | – | inactive
24 | CCOc1cc(C(=O)N/N=C/c2ccoc2)cc(OCC)c1OCC | inconclusive: 35.5 µM [falling, single point] | –
25 | CCOc1ccccc1C(=O)Nc1cccc2cccnc12 | – | inconclusive: -5.87%
26 | CCCc1cc(=O)oc2cc(OCC(=O)NCCc3c[nH]c4ccccc34)ccc12 | – | inconclusive: 29.9%
27 | CCS(=O)(=O)n1nc(-c2ccccc2)nc1SC | inconclusive: 14.6 µM [falling, partial curve] | –
28 | Cc1nc(CC(C)C)cc(C(=O)N2CCCC(CNS(=O)(=O)c3cccs3)C2)n1 (stereo not given) | – | inconclusive: 0.975%
29 | Cc1ccc(N2CC(C(=O)NCc3ccc4c(c3)OCO4)CC2=O)cc1C (stereo not given) | – | inconclusive: 1.79%
30 | COc1ccc(-c2cn3c(C)c(C(=O)Nc4ccncc4)sc3n2)cc1 | inconclusive: 29.1 µM [falling, single point] | –
31 | CC(=O)Nc1cccc(C(=O)OCC(=O)N2CCC(c3ccccc3)=N2)c1 | inconclusive: 9.2 µM [falling, partial curve] | –
32 | Cc1cccc(NC(=O)c2oc3c(c2C)C(=O)CC(C)(C)C3)n1 | – | inactive
33 | CCCCCn1c(=O)c(C(=O)OCC)c(O)c2ccccc21 | – | inconclusive: 1.43%
34 | Cc1cc(-c2nnc(-c3cc4ccccc4oc3=O)o2)c(C)n1-c1ccccc1 | – | inactive
35 | COc1ccc(C(=O)/C=C/c2cccs2)c(OC(=O)c2cccc([N+](=O)[O-])c2)c1 | inconclusive: 5.17 µM [falling, single point] | –
36 | COc1ccc(N(CC(=O)O)S(C)(=O)=O)cc1OC | – | inconclusive: -3.4%
37 | C/[N+]([O-])=C\C1C(=O)CCCC1=O | – | inconclusive: 3.17%
38 | Cc1sc2ncnc(NCCc3ccc(S(N)(=O)=O)cc3)c2c1C | – | inconclusive: -17.9%
39 | CCC(C)NC(=O)c1cc(CC(C)C)on1 (stereo not given) | inconclusive: 16.4 µM [falling, partial curve] | –
40 | CC1CCN(S(=O)(=O)c2ccc(C(=O)Nc3ccccn3)cc2)CC1 | – | inconclusive: -8.76%
41 | COc1ccc(-c2cn3cc(C)ccc3n2)cc1F | – | inconclusive: -0.117%
42 | O=c1c(C=NCCCn2ccnc2)c(-c2ccccc2)[nH]n1-c1nc2ccccc2s1 | – | inconclusive: 10.4%
43 | COC(=O)c1ccccc1NC(=O)CNc1cc(OC)c(OC)cc1C | inconclusive: 23.1 µM [falling, single point] | –
44 | COc1ccc(C(=O)N[C@H](C(=O)NCCc2ccc3c(c2)OCCO3)C(C)C)cc1 | – | inconclusive: -0.306%

Row | SMILES | Potency | activity change, negative = inhibition
45 | Nc1ccc(C(=O)OCC(=O)N2c3ccccc3Sc3ccccc32)cc1[N+](=O)[O-] | – | inconclusive: -0.44%
46 | Cc1cccc(C(=O)Nc2ccc(N3CC=C(c4ccccc4C)CC3)c(C(=O)O)c2)c1 | – | inactive
47 | CC(C)NC(=O)c1ccc2c(c1)N(CC(=O)N1CCCCC1)C(=O)C(C)(C)O2 | – | inactive
48 | Cn1c(SCC(=O)NCc2ccco2)nnc1-c1ccccc1 | – | inactive
49 | O=C1NC2(O)C(=O)c3ccccc3C2(O)N1 (stereo not given) | – | inconclusive: 16.6%
50 | CCOC(=O)C(=O)/C(C#N)=C/Nc1ccc(F)cc1 | inconclusive: 7.31 µM [falling, partial curve] | –
51 | CCCCN(CCCC)S(=O)(=O)c1ccc(NC(=O)Cc2cccs2)cc1 | – | inconclusive: 16.4%
52 | Cc1ccc(OCC(=O)O/N=C(\N)c2ccccn2)cc1C | inconclusive: 20 µM [falling, partial curve] | –
53 | C=CCNc1ncnc2c1cnn2-c1ccc(Cl)cc1 | – | inconclusive: 15.4%
54 | Cc1ccccc1N1C(=O)C(Cl)=C(N2CCCCCC2)C1=O | – | inactive
55 | Cc1cc2oc(=O)cc(CN3CCOCC3)c2cc1C(C)C | – | inconclusive: -0.226%
56 | Cc1cccc(NC(=O)Cn2c(=O)n(Cc3ccco3)c(=N)c3c4c(sc32)COC(C)(C)C4)c1 | – | inconclusive: 1.09%
57 | O=c1[nH]c(CN2CCN(c3ccccc3)CC2)nc2scc(-c3ccccc3)c12 | – | inactive
58 | C/C(=N\NC(N)=S)c1ccc2c(c1)OCCO2 | – | inactive
59 | O=c1[nH]n(-c2ccccc2)c(=O)c2ccccc12 | – | inactive
60 | COc1ccc(S(=O)(=O)N2CCCCC2)cc1NC(=O)c1cccs1 | – | inactive
61 | Cc1ccc(NC(=O)C[n+]2cc(-c3ccc(C)cc3)n3c2CCC3)cc1 | – | inactive
62 | Cc1cnc(NC(=O)Cc2ccccc2F)s1 | – | inconclusive: -7.48%
63 | S=C(Nc1ccccc1)Nc1nc2ccccc2n1CCOc1ccc(Br)cc1 | inconclusive: 20.6 µM [falling, single point] | –
64 | Cc1cc(C2C(C#N)=C(N)SC(N)=C2C#N)c(C)s1 | – | inconclusive: 1.33%
65 | CCS(=O)(=O)N1CCCC(C(=O)NCc2ccccc2Cl)C1 (stereo not given) | – | inconclusive: 2.51%
66 | O=C(Nc1nc2ccc(F)cc2s1)c1ccccn1 | inconclusive: 4.47 µM [cytotoxic, full curve, poor fit] | –

Row | SMILES | Potency | activity change, negative = inhibition
67 | Cc1ccc(C(=O)NCCNC(=O)COc2ccccc2Cl)cn1 | – | inconclusive: -4.27%
68 | CCN(c1ccccc1)S(=O)(=O)c1ccc(N2CCN(c3ccccc3O)CC2)nc1 | – | inactive
69 | CC(C)c1ccccc1NC(=O)Nc1ccc2c(c1)OCO2 | inconclusive: 11.2 µM [falling, partial curve, poor fit] | –
70 | CCCN1C(=O)c2[nH]nc(-c3cc(Cl)c(C)cc3O)c2C1c1ccc(O)c(OC)c1 (stereo not given) | inconclusive: 20 µM [falling, single point] | –
71 | COC(=O)Cc1ccc(NC(=O)c2ccccc2Cl)cc1 | inconclusive: 15.8 µM [falling, single point] | –
72 | COc1ccc(C(=O)NC(c2ccccc2Cl)c2cc(Cl)c3cccnc3c2O)cc1 (stereo not given) | inconclusive: 22.4 µM [falling, single point] | –
73 | COc1ccc(Nc2nc3cc(C)ccc3cc2C#N)cc1 | – | inconclusive: 8.11%
74 | O=C(O)/C=C/C(=O)Nc1ccc(Oc2ccccc2)cc1 | – | inconclusive: 11.5%
75 | CCc1cc(CNC(=O)c2ccc3nc(Cc4ccc(OC)c(OC)c4)oc3c2)on1 | – | inconclusive: 1.21%
76 | O=c1c2ccccc2c(C=Nc2ccccc2O)c(O)n1-c1nccs1 | – | inconclusive: -21.2%
77 | O=C(CC1C(=O)CCCC1=O)c1ccccc1 | – | inconclusive: -1.71%
78 | Cc1ccc(NC(=O)C(=O)N2CCCC2)cc1Cl | – | inconclusive: -0.429%
79 | CCOC(=O)C1(CCOc2ccccc2)CCN(Cc2ccc(-n3cccn3)cc2)CC1 | – | inconclusive: -18.5%
80 | CC(=O)c1cccc(CN2CCC(CO)(CCCc3ccccc3)CC2)c1 | – | inactive
81 | COc1ccc(NS(=O)(=O)c2ccc3c(c2)CCC(=O)N3)cc1O | – | inconclusive: -2.54%
82 | Oc1ccc(-c2csc(Nc3ccccn3)n2)c(O)c1 | – | inactive
83 | CC(=O)c1cc2c(cc1NC(=O)CSc1nc3ccccc3[nH]1)OCO2 | – | inconclusive: 0.11%
84 | O=C(Nc1cc2c(cc1C(=O)O)OCCCO2)c1ccc(F)cc1F | inconclusive: 15.8 µM [falling, partial curve] | –
85 | CCOC(=O)c1ccc(NC(=O)C2CCCN(S(=O)(=O)c3ccc(F)cc3)C2)cc1 (stereo not given) | inconclusive: 29.1 µM [falling, single point] | –

Laid out differently: entries from further up
Row	SMILES	Potency	activity change, negative = inhibition
61	Cc1ccc(NC(=O)C[n+]2cc(-c3ccc(C)cc3)n3c2CCC3)cc1	–	inactive
62	Cc1cnc(NC(=O)Cc2ccccc2F)s1	–	inconclusive: -7.48%
63	S=C(Nc1ccccc1)Nc1nc2ccccc2n1CCOc1ccc(Br)cc1	inconclusive: 20.6 µM [falling, single point]	–
64	Cc1cc(C2C(C#N)=C(N)SC(N)=C2C#N)c(C)s1	–	inconclusive: 1.33%
65	CCS(=O)(=O)N1CCCC(C(=O)NCc2ccccc2Cl)C1 (stereo not given)	–	inconclusive: 2.51%
66	O=C(Nc1nc2ccc(F)cc2s1)c1ccccn1	inconclusive: 4.47 µM [cytotoxic, full curve, poor fit]	–
67	Cc1ccc(C(=O)NCCNC(=O)COc2ccccc2Cl)cn1	–	inconclusive: -4.27%
68	CCN(c1ccccc1)S(=O)(=O)c1ccc(N2CCN(c3ccccc3O)CC2)nc1	–	inactive
69	CC(C)c1ccccc1NC(=O)Nc1ccc2c(c1)OCO2	inconclusive: 11.2 µM [falling, partial curve, poor fit]	–
70	CCCN1C(=O)c2[nH]nc(-c3cc(Cl)c(C)cc3O)c2C1c1ccc(O)c(OC)c1 (stereo not given)	inconclusive: 20 µM [falling, single point]	–
71	COC(=O)Cc1ccc(NC(=O)c2ccccc2Cl)cc1	inconclusive: 15.8 µM [falling, single point]	–
72	COc1ccc(C(=O)NC(c2ccccc2Cl)c2cc(Cl)c3cccnc3c2O)cc1 (stereo not given)	inconclusive: 22.4 µM [falling, single point]	–
73	COc1ccc(Nc2nc3cc(C)ccc3cc2C#N)cc1	–	inconclusive: 8.11%
74	O=C(O)/C=C/C(=O)Nc1ccc(Oc2ccccc2)cc1	–	inconclusive: 11.5%
75	CCc1cc(CNC(=O)c2ccc3nc(Cc4ccc(OC)c(OC)c4)oc3c2)on1	–	inconclusive: 1.21%
76	O=c1c2ccccc2c(C=Nc2ccccc2O)c(O)n1-c1nccs1	–	inconclusive: -21.2%
77	O=C(CC1C(=O)CCCC1=O)c1ccccc1	–	inconclusive: -1.71%
78	Cc1ccc(NC(=O)C(=O)N2CCCC2)cc1Cl	–	inconclusive: -0.429%
79	CCOC(=O)C1(CCOc2ccccc2)CCN(Cc2ccc(-n3cccn3)cc2)CC1	–	inconclusive: -18.5%
80	CC(=O)c1cccc(CN2CCC(CO)(CCCc3ccccc3)CC2)c1	–	inactive
81	COc1ccc(NS(=O)(=O)c2ccc3c(c2)CCC(=O)N3)cc1O	–	inconclusive: -2.54%
82	Oc1ccc(-c2csc(Nc3ccccn3)n2)c(O)c1	–	inactive

Not a retest: 2 of the compounds above.
Row | SMILES | Potency | activity change, negative = inhibition
46 | Cc1cccc(C(=O)Nc2ccc(N3CC=C(c4ccccc4C)CC3)c(C(=O)O)c2)c1 | – | inactive
47 | CC(C)NC(=O)c1ccc2c(c1)N(CC(=O)N1CCCCC1)C(=O)C(C)(C)O2 | – | inactive
